# This is one part of the list. Most entries show no effect beyond the scatter of the controls.
# By UniProt entry, the sequences of proteins in these tests, tags left out. Where a name states a change or a piece, a line headed by the entry shows the natural chain unless it says otherwise.
# UniProt Q9WUA3: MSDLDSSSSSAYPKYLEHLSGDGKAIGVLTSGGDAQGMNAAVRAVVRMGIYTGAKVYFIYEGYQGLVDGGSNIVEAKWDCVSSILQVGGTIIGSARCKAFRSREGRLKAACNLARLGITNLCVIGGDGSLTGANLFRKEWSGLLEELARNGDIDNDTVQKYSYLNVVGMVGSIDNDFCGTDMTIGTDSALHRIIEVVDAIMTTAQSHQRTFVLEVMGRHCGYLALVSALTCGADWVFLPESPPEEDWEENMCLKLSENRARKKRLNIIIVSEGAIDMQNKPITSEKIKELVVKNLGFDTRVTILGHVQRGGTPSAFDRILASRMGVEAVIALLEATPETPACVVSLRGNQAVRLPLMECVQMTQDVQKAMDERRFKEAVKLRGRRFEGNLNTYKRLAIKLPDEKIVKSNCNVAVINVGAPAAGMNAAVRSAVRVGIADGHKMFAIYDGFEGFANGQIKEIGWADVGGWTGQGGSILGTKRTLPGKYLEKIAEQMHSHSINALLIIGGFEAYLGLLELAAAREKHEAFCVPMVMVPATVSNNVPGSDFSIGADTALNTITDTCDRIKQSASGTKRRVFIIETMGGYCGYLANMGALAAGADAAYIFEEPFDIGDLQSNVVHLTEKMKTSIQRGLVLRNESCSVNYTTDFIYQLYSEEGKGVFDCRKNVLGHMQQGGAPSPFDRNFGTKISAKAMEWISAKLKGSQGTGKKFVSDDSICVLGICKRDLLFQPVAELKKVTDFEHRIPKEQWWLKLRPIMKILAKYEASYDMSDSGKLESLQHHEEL
# UniProt Q9WVB0, whole entry, looked up: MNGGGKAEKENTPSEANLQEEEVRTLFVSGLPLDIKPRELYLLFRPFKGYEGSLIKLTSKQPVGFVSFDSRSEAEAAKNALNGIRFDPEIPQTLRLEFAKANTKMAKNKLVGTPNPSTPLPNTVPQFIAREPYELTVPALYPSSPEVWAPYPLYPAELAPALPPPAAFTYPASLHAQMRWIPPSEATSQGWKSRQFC
# UniProt Q9WVT6: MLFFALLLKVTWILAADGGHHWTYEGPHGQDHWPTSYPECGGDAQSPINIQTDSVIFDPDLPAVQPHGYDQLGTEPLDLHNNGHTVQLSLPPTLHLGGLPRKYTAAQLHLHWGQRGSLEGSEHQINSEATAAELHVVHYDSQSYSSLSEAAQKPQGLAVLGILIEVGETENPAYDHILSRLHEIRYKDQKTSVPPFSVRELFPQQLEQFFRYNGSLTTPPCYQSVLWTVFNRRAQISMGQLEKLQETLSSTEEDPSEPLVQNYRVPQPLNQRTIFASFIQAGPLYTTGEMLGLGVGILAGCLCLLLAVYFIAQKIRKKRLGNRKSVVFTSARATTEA
# UniProt Q9WUM3, whole entry: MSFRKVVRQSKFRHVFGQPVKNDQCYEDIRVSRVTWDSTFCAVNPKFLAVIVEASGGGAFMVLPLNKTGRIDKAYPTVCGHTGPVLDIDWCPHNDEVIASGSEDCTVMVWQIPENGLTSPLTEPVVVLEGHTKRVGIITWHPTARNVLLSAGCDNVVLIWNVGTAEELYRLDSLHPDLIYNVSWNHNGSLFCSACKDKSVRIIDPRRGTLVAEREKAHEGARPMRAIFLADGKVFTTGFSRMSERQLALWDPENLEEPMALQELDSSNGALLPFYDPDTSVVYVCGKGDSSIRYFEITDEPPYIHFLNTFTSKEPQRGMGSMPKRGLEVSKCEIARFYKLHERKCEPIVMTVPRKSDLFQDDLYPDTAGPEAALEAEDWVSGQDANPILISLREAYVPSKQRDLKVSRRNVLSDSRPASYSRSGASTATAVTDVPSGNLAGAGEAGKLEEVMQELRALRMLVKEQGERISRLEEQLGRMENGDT
# UniProt Q9WTX6, whole entry: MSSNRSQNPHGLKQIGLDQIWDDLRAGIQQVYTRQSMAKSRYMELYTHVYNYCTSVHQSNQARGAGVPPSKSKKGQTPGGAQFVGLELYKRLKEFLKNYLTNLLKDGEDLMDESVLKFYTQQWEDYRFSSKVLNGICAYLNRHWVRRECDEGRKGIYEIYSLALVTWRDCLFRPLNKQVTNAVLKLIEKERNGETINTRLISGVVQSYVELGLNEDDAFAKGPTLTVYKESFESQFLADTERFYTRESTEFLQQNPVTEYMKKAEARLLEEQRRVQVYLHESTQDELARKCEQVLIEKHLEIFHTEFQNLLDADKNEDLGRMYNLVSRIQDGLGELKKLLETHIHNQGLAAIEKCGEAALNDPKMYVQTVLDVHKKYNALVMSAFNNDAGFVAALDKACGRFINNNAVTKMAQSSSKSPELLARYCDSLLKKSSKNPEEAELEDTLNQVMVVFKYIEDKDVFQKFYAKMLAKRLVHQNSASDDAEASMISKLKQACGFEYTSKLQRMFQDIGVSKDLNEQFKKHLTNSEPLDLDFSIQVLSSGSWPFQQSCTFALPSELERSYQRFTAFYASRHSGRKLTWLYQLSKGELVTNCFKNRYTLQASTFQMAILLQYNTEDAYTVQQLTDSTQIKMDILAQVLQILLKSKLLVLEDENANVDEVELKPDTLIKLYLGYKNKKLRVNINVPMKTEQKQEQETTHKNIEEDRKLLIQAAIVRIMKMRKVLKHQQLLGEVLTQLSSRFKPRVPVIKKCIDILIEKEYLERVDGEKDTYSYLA
# UniProt Q9WV98: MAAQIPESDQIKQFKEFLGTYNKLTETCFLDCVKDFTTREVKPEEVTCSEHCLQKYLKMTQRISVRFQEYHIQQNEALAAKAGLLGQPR
# UniProt Q9WTR5: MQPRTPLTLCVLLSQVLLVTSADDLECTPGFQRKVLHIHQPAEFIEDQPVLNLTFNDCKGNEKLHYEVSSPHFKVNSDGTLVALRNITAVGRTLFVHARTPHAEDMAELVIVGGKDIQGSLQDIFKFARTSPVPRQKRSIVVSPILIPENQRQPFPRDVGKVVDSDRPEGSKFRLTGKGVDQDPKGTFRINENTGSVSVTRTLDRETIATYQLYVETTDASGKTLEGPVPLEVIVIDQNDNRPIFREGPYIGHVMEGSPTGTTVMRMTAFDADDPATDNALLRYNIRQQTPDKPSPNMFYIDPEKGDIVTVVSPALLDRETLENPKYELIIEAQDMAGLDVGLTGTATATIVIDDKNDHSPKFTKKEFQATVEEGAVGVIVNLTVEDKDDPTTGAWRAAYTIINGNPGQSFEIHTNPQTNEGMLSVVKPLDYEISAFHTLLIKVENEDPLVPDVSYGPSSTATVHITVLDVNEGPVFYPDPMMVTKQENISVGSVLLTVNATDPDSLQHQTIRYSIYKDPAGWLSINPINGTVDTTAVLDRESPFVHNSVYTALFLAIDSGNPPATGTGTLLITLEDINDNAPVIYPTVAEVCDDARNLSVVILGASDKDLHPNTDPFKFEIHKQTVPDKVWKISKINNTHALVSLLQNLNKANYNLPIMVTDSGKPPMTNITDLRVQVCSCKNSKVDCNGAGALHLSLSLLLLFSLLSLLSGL
# UniProt Q9R111: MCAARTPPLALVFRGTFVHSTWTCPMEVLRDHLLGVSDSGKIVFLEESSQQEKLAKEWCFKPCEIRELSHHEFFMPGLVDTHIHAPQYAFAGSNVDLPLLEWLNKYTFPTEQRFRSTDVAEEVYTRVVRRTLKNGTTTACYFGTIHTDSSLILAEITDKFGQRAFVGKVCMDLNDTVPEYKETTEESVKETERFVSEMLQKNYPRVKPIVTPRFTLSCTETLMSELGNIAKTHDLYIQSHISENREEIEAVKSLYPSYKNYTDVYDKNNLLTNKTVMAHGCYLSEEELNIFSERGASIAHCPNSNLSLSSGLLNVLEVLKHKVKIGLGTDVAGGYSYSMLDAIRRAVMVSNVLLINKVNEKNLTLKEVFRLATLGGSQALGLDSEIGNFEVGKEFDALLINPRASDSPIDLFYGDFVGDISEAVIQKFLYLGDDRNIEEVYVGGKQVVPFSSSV
# UniProt Q9Z1G4, whole entry: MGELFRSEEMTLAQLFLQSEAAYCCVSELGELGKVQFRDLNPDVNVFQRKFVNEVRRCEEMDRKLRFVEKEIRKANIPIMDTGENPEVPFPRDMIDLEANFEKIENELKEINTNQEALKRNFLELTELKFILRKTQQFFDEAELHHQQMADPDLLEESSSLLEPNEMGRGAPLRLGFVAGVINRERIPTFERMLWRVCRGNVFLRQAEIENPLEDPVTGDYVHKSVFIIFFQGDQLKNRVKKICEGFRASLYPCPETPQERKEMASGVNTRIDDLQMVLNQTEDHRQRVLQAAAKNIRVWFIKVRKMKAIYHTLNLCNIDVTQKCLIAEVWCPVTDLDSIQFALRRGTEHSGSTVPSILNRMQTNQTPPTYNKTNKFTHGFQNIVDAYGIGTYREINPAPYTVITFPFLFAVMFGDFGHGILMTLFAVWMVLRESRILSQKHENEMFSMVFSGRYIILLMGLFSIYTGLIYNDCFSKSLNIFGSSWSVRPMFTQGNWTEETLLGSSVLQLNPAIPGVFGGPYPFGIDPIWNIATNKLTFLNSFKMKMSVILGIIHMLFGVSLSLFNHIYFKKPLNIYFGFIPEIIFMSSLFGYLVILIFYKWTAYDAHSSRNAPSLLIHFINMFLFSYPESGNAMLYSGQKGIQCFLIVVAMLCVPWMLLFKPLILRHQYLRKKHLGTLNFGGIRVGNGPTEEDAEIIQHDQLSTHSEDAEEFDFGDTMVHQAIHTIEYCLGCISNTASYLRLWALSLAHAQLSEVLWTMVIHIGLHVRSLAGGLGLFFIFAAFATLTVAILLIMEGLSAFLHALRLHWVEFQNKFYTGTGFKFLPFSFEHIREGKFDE
# UniProt Q9R0I7: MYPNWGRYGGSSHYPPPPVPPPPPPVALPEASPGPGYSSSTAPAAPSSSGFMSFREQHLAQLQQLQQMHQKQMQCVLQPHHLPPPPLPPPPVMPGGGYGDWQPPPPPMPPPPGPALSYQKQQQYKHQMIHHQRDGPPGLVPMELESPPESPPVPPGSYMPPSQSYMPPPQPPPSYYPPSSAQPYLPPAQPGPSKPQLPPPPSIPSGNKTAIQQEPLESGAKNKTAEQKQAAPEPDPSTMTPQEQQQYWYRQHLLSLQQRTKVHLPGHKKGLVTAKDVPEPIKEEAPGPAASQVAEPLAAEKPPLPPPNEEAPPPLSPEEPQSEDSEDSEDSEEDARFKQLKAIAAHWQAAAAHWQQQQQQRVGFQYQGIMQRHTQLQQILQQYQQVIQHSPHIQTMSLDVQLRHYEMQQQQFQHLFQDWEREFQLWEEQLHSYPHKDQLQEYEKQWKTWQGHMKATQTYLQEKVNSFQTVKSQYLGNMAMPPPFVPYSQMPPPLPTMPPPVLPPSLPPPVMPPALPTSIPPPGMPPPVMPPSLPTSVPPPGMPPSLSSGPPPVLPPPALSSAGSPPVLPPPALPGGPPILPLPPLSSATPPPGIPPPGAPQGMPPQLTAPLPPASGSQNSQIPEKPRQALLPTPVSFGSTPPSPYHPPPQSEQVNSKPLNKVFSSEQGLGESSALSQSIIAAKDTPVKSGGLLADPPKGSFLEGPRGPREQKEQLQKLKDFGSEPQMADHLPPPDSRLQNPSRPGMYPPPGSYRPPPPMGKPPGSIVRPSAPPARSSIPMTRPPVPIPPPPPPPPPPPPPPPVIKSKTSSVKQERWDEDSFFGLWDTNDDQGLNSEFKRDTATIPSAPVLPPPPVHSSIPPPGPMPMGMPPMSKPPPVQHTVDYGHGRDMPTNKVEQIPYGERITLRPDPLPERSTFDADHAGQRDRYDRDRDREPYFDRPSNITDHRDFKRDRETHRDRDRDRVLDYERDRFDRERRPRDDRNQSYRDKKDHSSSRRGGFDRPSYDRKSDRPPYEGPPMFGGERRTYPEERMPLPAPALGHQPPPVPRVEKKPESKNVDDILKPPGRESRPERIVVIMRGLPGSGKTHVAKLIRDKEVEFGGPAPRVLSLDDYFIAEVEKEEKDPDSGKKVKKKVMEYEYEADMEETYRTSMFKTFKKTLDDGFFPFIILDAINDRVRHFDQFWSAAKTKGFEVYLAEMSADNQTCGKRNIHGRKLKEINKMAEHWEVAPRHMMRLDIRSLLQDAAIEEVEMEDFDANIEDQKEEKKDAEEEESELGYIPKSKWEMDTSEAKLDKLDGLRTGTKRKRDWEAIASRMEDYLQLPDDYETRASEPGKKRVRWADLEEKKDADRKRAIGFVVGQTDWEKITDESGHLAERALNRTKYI
# UniProt Q9R059: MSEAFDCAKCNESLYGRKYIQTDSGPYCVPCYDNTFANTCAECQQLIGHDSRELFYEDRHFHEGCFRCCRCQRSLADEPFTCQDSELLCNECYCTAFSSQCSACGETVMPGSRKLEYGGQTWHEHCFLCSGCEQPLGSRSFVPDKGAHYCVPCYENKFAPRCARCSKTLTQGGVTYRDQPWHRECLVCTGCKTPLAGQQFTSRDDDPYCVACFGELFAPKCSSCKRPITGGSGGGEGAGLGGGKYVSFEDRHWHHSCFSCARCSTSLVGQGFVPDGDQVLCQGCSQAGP
# Compound: CN[C@@H]1C[C@H]2O[C@@](C)([C@@H]1OC)n1c3ccccc3c3c4c(c5c6ccccc6n2c5c31)C(=O)NC4 [staurosporine]
# Assay: log2 fold change of pooled soluble protein (PISA), ligand vs vehicle (log2 ratio); higher = more thermally stabilized
# Details: ligand concentration: 20 uM; assay format: PISA pool 52.9/55.5/58.6 C
row,Target,log2 fold change of pooled soluble protein
1,UniProt Q9R0P6,-0.0473
2,UniProt Q9WTI7,0.0496
3,UniProt Q9R0M6,-0.0146
4,UniProt Q9R190,-0.573
5,UniProt Q9Z2I9,-0.113
6,UniProt Q9WUA3,-0.0193
7,UniProt Q9WTU6,0.506
8,UniProt Q9WVB0,-0.18
9,UniProt Q9R069,0.0832
10,UniProt Q9WVT6,0.0242
11,UniProt Q9WUM3,0.191
12,UniProt Q9WTX6,-0.00952
13,UniProt Q9WV98,-0.135
14,UniProt Q9R1C0,-0.109
15,UniProt Q9QYR7,-0.214
16,UniProt Q9QZB7,0.0539
17,UniProt Q9WTR5,0.0822
18,UniProt Q9Z1R3,0.033
19,UniProt Q9R111,-0.0259

# Some of the entries so far, bar-delimited.
row | Target | log2 fold change of pooled soluble protein
4 | UniProt Q9R190 | -0.573
5 | UniProt Q9Z2I9 | -0.113

# Additional results:

row,Target,log2 fold change of pooled soluble protein
1,UniProt Q9Z0S1,-0.0527
2,UniProt Q9WVM8,-0.00583
3,UniProt Q9Z1J3,-0.0683
4,UniProt Q9R1P3,0.0504
5,UniProt Q9WVD4,-0.0357
6,UniProt Q9QYY9,-0.0465
7,UniProt Q9Z1G4,0.0767
8,UniProt Q9WV55,-0.15
9,UniProt Q9Z204,0.0102
10,UniProt Q9R0A1,0.137
11,UniProt Q9R0I7,-0.237
12,UniProt Q9R1Q7,-0.0806
13,UniProt Q9WVQ5,-0.0159
14,UniProt Q9R0M5,0.359
15,UniProt Q9QZ49,0.00938
16,UniProt Q9R1S7,-0.11
17,UniProt Q9R059,0.0648
18,UniProt Q9Z1Z0,-0.014
19,UniProt Q9Z0R6,-0.148

# Source: the supplement of paper PMC12819154, “High-throughput peptide-centric local stability assay extends protein–ligand identification to membrane proteins, tissues and bacteria” (Nature Structural & Molecular Biology, 2025)
